From the supplement of paper PMC10849652
The other results are listed elsewhere or left out.

Sequences of proteins named here, by UniProt entry; tags and fusion partners are left off. A change or cut given only in a name is not applied to a line headed by its entry.
UniProt Q0PNE2: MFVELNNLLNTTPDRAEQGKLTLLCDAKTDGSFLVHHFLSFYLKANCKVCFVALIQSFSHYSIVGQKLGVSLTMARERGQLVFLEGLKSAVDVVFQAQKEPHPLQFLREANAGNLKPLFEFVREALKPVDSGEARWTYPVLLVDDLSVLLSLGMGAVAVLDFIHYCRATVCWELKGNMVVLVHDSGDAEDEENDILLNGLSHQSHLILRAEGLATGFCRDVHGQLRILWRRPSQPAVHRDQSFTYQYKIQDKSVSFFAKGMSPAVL
UniProt P07814: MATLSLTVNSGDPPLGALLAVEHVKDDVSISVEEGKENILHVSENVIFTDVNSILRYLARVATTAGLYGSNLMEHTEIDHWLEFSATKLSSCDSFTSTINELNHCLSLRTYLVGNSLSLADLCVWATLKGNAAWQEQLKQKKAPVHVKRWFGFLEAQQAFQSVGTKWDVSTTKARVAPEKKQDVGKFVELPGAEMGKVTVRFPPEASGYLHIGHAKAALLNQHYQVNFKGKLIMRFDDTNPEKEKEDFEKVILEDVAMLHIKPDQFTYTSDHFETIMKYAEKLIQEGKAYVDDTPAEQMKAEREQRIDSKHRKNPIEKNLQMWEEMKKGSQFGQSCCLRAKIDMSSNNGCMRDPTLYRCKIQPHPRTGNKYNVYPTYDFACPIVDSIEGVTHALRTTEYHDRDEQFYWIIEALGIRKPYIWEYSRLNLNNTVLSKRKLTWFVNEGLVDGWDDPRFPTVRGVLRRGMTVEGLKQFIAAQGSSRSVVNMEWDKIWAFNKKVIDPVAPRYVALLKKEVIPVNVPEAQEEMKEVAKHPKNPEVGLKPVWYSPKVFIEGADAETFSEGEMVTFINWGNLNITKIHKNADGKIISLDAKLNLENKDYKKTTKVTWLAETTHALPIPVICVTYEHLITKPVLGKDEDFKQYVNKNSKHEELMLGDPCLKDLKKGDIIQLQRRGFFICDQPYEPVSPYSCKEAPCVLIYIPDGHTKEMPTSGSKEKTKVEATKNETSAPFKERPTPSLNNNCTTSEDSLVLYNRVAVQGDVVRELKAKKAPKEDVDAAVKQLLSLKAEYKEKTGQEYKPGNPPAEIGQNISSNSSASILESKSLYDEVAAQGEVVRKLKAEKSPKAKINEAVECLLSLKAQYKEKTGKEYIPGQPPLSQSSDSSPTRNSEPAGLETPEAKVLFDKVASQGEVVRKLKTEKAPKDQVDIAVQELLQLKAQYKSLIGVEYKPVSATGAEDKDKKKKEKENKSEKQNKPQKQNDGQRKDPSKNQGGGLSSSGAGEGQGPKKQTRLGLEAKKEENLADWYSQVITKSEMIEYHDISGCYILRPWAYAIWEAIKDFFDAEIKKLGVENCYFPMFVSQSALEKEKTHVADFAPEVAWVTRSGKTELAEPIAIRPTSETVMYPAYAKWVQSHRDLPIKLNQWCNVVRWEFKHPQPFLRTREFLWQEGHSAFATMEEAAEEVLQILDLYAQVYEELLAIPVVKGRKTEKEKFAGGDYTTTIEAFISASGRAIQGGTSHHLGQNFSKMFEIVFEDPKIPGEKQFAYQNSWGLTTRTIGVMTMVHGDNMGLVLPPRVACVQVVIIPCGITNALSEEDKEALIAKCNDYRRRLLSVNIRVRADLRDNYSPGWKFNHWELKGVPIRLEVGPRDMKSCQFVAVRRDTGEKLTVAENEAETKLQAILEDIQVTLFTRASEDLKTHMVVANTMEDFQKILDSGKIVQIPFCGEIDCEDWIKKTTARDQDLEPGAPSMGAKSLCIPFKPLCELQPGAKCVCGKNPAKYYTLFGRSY
UniProt Q92889: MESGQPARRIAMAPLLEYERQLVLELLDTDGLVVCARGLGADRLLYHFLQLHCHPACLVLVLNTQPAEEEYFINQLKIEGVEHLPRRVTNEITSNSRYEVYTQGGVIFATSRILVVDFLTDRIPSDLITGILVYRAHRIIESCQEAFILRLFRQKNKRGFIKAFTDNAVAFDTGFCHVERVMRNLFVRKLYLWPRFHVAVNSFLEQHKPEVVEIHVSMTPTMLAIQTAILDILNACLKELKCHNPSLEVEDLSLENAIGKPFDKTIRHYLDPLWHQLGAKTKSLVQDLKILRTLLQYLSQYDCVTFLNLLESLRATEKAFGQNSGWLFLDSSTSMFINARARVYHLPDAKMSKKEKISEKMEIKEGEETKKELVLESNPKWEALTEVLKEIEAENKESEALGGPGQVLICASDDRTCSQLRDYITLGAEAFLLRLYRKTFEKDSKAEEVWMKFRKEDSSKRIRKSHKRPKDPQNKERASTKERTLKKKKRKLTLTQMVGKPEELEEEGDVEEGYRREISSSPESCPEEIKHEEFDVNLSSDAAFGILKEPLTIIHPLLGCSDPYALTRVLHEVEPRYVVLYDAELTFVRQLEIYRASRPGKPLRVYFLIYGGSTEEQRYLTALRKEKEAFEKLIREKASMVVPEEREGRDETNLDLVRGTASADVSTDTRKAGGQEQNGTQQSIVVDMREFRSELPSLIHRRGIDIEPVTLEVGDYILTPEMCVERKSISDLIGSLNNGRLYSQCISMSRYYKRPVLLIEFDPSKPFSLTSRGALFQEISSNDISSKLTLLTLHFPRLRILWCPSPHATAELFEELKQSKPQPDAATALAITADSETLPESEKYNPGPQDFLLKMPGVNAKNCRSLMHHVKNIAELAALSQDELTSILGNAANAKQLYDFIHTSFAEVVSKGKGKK
UniProt Q09472, whole entry, looked up: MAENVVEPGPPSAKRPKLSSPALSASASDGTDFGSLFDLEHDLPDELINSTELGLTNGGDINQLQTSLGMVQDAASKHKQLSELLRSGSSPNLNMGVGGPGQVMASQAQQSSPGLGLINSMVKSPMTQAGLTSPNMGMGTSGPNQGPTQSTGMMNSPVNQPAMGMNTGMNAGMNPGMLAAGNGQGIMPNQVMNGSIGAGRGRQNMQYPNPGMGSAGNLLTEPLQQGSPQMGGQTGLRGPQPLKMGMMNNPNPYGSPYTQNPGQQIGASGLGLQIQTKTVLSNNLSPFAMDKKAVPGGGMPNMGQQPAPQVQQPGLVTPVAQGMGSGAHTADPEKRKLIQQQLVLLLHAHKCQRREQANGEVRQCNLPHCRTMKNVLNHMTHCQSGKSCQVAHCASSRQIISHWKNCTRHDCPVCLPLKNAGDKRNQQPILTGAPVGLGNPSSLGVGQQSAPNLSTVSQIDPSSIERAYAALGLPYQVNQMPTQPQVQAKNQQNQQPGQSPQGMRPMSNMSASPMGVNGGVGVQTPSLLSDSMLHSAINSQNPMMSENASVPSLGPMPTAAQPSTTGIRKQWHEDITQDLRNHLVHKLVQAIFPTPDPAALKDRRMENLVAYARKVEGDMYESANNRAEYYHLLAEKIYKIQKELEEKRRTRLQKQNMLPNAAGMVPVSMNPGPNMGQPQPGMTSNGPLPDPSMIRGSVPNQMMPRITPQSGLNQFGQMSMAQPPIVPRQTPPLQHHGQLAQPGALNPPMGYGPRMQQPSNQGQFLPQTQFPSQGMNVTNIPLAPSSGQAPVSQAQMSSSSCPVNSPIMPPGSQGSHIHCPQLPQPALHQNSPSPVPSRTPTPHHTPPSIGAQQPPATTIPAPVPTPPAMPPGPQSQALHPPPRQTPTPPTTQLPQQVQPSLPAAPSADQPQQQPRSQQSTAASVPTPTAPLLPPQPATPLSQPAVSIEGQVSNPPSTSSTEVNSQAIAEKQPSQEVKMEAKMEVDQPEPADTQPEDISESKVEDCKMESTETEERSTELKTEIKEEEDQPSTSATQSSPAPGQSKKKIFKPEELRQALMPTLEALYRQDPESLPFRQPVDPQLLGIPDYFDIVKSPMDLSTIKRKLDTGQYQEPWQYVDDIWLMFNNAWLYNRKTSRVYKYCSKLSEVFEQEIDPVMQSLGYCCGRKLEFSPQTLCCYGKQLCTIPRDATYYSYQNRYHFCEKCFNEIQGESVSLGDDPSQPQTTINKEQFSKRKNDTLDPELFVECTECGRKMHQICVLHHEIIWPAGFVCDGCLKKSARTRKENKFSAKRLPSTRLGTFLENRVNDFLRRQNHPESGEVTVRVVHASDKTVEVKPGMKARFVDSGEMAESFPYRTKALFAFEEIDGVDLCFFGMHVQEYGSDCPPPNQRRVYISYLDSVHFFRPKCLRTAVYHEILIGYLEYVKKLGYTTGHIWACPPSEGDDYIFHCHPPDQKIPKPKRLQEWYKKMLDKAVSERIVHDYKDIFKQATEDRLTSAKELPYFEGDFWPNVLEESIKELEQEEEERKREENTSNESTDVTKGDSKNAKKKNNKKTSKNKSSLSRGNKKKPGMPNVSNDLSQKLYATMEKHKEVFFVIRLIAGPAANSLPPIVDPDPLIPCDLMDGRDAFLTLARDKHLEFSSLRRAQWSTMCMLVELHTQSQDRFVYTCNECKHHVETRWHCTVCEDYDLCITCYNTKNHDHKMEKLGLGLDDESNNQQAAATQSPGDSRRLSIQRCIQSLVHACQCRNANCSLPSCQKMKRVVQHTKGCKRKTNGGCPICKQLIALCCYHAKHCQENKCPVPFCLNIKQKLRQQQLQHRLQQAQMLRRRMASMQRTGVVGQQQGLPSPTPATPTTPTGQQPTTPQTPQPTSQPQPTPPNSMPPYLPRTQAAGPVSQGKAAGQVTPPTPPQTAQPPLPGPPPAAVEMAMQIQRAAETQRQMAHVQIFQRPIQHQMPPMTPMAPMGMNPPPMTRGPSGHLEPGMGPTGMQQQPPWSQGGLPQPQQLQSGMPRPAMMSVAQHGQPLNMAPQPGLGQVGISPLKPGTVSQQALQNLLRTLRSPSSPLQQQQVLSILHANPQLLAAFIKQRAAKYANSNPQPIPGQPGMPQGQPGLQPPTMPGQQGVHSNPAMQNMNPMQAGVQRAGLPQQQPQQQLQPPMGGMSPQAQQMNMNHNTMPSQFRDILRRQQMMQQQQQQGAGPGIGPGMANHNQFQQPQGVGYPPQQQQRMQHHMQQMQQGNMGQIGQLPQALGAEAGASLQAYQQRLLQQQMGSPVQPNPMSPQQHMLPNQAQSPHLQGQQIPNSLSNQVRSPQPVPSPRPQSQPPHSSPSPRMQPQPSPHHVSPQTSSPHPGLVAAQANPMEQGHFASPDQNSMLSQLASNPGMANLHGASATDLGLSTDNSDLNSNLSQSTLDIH
UniProt O43414: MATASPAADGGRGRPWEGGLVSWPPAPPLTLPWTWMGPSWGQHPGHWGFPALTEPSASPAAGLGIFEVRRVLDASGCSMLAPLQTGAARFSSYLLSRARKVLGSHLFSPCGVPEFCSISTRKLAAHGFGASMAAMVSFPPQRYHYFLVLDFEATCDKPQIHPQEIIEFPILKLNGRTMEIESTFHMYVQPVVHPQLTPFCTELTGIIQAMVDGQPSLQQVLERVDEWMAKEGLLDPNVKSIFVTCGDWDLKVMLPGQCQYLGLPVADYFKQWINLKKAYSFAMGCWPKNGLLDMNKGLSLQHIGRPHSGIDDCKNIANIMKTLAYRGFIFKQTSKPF
UniProt P05198, whole entry, looked up: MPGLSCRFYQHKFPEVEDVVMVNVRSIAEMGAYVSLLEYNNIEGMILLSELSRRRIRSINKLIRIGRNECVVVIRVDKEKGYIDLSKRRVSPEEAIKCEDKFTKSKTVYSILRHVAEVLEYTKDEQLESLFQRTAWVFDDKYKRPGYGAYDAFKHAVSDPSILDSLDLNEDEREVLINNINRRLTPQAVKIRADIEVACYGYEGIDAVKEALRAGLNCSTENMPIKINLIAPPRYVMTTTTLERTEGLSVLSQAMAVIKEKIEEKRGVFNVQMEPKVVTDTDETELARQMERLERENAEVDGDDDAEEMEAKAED
UniProt Q9H9T3: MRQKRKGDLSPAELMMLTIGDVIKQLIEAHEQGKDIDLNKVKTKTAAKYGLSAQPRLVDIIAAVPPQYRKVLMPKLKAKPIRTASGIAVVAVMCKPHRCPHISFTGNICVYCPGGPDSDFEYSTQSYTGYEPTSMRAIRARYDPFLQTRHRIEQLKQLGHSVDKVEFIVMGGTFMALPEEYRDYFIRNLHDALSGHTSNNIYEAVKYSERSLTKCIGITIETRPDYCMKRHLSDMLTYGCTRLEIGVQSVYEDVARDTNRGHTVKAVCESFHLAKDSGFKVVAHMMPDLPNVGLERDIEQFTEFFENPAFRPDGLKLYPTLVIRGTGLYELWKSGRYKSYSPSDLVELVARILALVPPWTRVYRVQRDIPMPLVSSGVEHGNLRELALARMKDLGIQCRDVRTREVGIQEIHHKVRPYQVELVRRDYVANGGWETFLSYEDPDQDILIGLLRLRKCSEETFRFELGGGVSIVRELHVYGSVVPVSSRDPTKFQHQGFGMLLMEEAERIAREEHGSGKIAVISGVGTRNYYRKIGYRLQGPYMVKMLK

Assays:
Assay in all cases: log2 fold change, soluble protein after heating vs DMSO (PISA); higher = thermal stabilisation; K562 lysate, 10 uM; active = over 0.2 and 3.5 SD of the protein, either way, in both replicates (recomputed)
lapatinib = compound: CS(=O)(=O)CCNCc1ccc(-c2ccc3ncnc(Nc4ccc(OCc5cccc(F)c5)c(Cl)c4)c3c2)o1 [lapatinib]
Method in brief: (§1)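 Soluble protein was defined as the supernatant remaining after 21,000xg for 90 min, following pooling of heated aliquots and adjustment to 0.5% NP-40 at 4°C. Before that, crude K562 extract at 1 mg/mL protein in PBS pH 7.4 with 1 mM MgCl2 was treated with 10 μM compound for 30 min and heated for 3 min across 48°C-58°C. Quantification used TMTpro 16plex LC-MS/MS with channel sums equalised, and values are log-two fold changes in thermal stability relative to solvent controls from duplicates.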

pictilisib = compound: CS(=O)(=O)N1CCN(Cc2cc3nc(-c4cccc5[nH]ncc45)nc(N4CCOCC4)c3s2)CC1 [pictilisib]
Method in brief: as §1

crizotinib = compound: C[C@@H](Oc1cc(-c2cnn(C3CCNCC3)c2)cnc1N)c1c(Cl)ccc(F)c1Cl [crizotinib]
Method in brief: as §1

[1] = compound: C[C@H](C1=CC=C(C=C1)C(=O)NC2=C3C=CNC3=NC=C2)N
Method in brief: as §1

duvelisib = compound: C[C@H](Nc1ncnc2nc[nH]c12)c1cc2cccc(Cl)c2c(=O)n1-c1ccccc1 [duvelisib]
Method in brief: as §1

gandotinib = compound: Cc1cc(Nc2cc(CN3CCOCC3)c3nc(C)c(Cc4ccc(Cl)cc4F)n3n2)n[nH]1 [gandotinib]
Method in brief: as §1

tozasertib = compound: Cc1cc(Nc2cc(N3CCN(C)CC3)nc(Sc3ccc(NC(=O)C4CC4)cc3)n2)n[nH]1 [tozasertib]
Method in brief: as §1

doramapimod = compound: Cc1ccc(-n2nc(C(C)(C)C)cc2NC(=O)Nc2ccc(OCCN3CCOCC3)c3ccccc23)cc1 [doramapimod]
Method in brief: as §1

bafetinib = compound: Cc1ccc(NC(=O)c2ccc(CN3CC[C@H](N(C)C)C3)c(C(F)(F)F)c2)cc1Nc1nccc(-c2cncnc2)n1 [bafetinib]
Method in brief: as §1

[2] = compound: Cc1cccc(CC(=O)N2CCc3c2ccc(-c2cn(C)c4ncnc(N)c24)c3F)n1
Method in brief: as §1

nilotinib = compound: Cc1cn(-c2cc(NC(=O)c3ccc(C)c(Nc4nccc(-c5cccnc5)n4)c3)cc(C(F)(F)F)c2)cn1 [nilotinib]
Method in brief: as §1

[3] = compound: Cc1nc(Nc2n[nH]c3c2CN(C(=O)N[C@H](CN(C)C)c2ccccc2)C3(C)C)c2sccc2n1
Method in brief: as §1

dasatinib = compound: Cc1nc(Nc2ncc(C(=O)Nc3c(C)cccc3Cl)s2)cc(N2CCN(CCO)CC2)n1 [dasatinib]
Method in brief: as §1

[4] = compound: Cc1ncc(-c2ccnc(Nc3ccc(S(C)(=O)=O)cc3)n2)n1C(C)C
Method in brief: as §1

[5] = compound: Cn1cc(-c2ccc3c(c2)CCN3C(=O)Cc2cccc(C(F)(F)F)c2)c2c(N)ncnc21
Method in brief: as §1

quisinostat = compound: Cn1cc(CNCC2CCN(c3ncc(C(=O)NO)cn3)CC2)c2ccccc21 [quisinostat]
Method in brief: as §1

tipifarnib = compound: Cn1cncc1[C@@](N)(c1ccc(Cl)cc1)c1ccc2c(c1)c(-c1cccc(Cl)c1)cc(=O)n2C [tipifarnib]
Method in brief: as §1

[6] = compound: NC(=O)Nc1cc(-c2cccc(F)c2)sc1C(=O)N[C@H]1CCCNC1
Method in brief: as §1

[7] = compound: NC(=O)c1cnc(N[C@@H]2CCCC[C@@H]2N)nc1Nc1cccc(-n2nccn2)c1
Method in brief: as §1

[8] = compound: NC1(c2ccc(-c3nc4ccn5c(=O)[nH]nc5c4cc3-c3ccccc3)cc2)CCC1
Method in brief: as §1

Row | Target | log2 fold change (lapatinib) | log2 fold change (pictilisib) | log2 fold change (crizotinib) | log2 fold change [1] | log2 fold change (duvelisib) | log2 fold change (gandotinib) | log2 fold change (tozasertib) | log2 fold change (doramapimod) | log2 fold change (bafetinib) | log2 fold change [2] | log2 fold change (nilotinib) | log2 fold change [3] | log2 fold change (dasatinib) | log2 fold change [4] | log2 fold change [5] | log2 fold change (quisinostat) | log2 fold change (tipifarnib) | log2 fold change [6] | log2 fold change [7] | log2 fold change [8]
1 | ELP6 (UniProt Q0PNE2) | inactive: 0.011 | inactive: -0.022 | inactive: -0.026 | inactive: -0.159 | inactive: 0.021 | inactive: 0.075 | inactive: -0.015 | inactive: 0.026 | inactive: -0.065 | inactive: 0.02 | inactive: 0.001 | inactive: 0.032 | inactive: -0.004 | inactive: -0.008 | inactive: -0.051 | inactive: -0.102 | inactive: -0.007 | inactive: 0.007 | inactive: 0.007 | inactive: 0.016
2 | ELOB (UniProt Q15370) | inactive: 0.03 | inactive: 0.052 | inactive: 0.002 | inactive: 0.009 | inactive: -0.014 | inactive: 0.034 | inactive: -0.014 | inactive: -0.037 | inactive: -0.01 | inactive: 0.064 | inactive: -0.005 | inactive: -0.018 | inactive: 0.038 | inactive: 0.026 | inactive: -0.06 | inactive: 0.062 | inactive: 0.021 | inactive: -0.072 | inactive: -0.044 | inactive: -0.042
3 | EPRS (UniProt P07814) | inactive: -0.005 | inactive: 0.006 | inactive: -0.042 | inactive: 0.015 | inactive: 0.031 | inactive: -0.069 | inactive: 0.012 | inactive: 0.02 | inactive: 0.003 | inactive: 0.019 | inactive: 0.005 | inactive: -0.002 | inactive: -0.039 | inactive: -0.01 | inactive: 0.039 | inactive: 0 | inactive: 0.011 | inactive: 0.039 | inactive: 0.002 | inactive: -0.026
4 | ERCC4 (UniProt Q92889) | inactive: -0.023 | inactive: -0.013 | inactive: -0.031 | active: -0.544 | inactive: 0.003 | inactive: 0.054 | inactive: -0.059 | inactive: 0.087 | inactive: -0.101 | inactive: 0.159 | inactive: -0.047 | inactive: -0.002 | inactive: 0.01 | inactive: -0.05 | inactive: 0.033 | inactive: -0.105 | inactive: -0.007 | inactive: 0.041 | inactive: 0.027 | inactive: -0.004
5 | EP300 (UniProt Q09472) | inactive: 0.062 | inactive: -0.078 | inactive: 0.047 | inactive: -0.101 | inactive: -0.037 | inactive: -0.047 | inactive: 0.065 | inactive: -0.016 | inactive: 0.044 | inactive: 0.089 | inactive: 0.036 | inactive: 0.037 | inactive: -0.028 | inactive: 0.081 | inactive: 0.007 | inactive: 0.03 | inactive: -0.043 | inactive: 0.036 | inactive: 0.023 | inactive: 0.046
6 | ERI3 (UniProt O43414) | inactive: 0.014 | inactive: -0.023 | inactive: -0.049 | inactive: -0.065 | inactive: 0.012 | inactive: 0.027 | inactive: 0.012 | inactive: 0.024 | inactive: 0 | inactive: 0.057 | inactive: -0.01 | inactive: 0.017 | inactive: 0.013 | inactive: 0.017 | inactive: -0.013 | inactive: -0.06 | inactive: 0.004 | inactive: 0.011 | inactive: -0.007 | inactive: -0.069
7 | EIF2S1 (UniProt P05198) | inactive: -0.006 | inactive: 0.01 | inactive: -0.003 | inactive: -0.048 | inactive: 0.039 | inactive: 0.028 | inactive: 0.001 | inactive: 0.029 | inactive: -0.012 | inactive: 0.04 | inactive: 0.001 | inactive: -0.02 | inactive: -0.005 | inactive: 0.004 | inactive: 0 | inactive: 0.005 | inactive: 0.017 | inactive: -0.036 | inactive: 0.01 | inactive: 0.018
8 | ELP3 (UniProt Q9H9T3) | inactive: -0.007 | inactive: -0.036 | inactive: -0.006 | inactive: -0.01 | inactive: 0.012 | inactive: 0.008 | inactive: 0.002 | inactive: -0.006 | inactive: -0.002 | inactive: 0.005 | inactive: -0.002 | inactive: -0.008 | inactive: -0.009 | inactive: -0.019 | inactive: 0.018 | inactive: -0.01 | inactive: -0.002 | inactive: 0.026 | inactive: -0.004 | inactive: -0.003
